# Out of some 52,000 sequences screened, about 210 (0.4%) were called active.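 Rule for the calls: active = gene whose silencing raises cell survival under the drug, median off-target-corrected z-score across its silencing RNAs 2 or more; inactive = the rest.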 This is one part of the list.
# Assay: Resistance to Poly (ADP-Ribose) Polymerase inhibitor: Gene Identification via Genome-wide siRNA Screen
# Conditions: mouse BRCA2 R2336H ES cells, olaparib, CellTiter-Glo viability; hits give high values
# Outline: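 Mouse BRCA2 R2336H ES cells were reverse-transfected with siRNA (20 nM final), treated at 48 h with 500 nM olaparib, and read by CellTiter-Glo after 72 h. Scores: MAD-based z per siRNA, median per gene, seed off-target correction.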
row,Sequence,z-score
1,GGACAUGAAGUUGUGUGAGTT against Trim26,inactive: -1.9
2,GGUGAAACUAAAAAUGGUCTT against Egfl6,inactive: 0.701
3,GGACUCCUACAGGAAACAATT against Kras2,inactive: 0.755
4,CCAUUGCUGUUGUGGUUGATT against H2-Q7,inactive: -0.663
5,GGCUAUGCAGCAUAUUAUATT against Ndufa1,inactive: -0.819
6,GGAAAAACUGGGAAUGGCUTT against 1600015H20Rik,inactive: 0.609
7,GCUGAUAAACAUCAGCUACTT against Gm779,inactive: 1.39
8,GGUGUGGGUGACCUUUAUCTT against BC010787,inactive: -0.517
9,CGAGCACCUAUUCAUCAUATT against Tdo2,inactive: -1.27
10,GGGAGCUGAACACAAACACTT against A430107P09Rik,inactive: 2.81
11,GGUGAUCCUCAUAUUGGCCTT against Npy2r,inactive: -0.259
12,GCCUAAGGCGCAUAAAUUCTT against 4921526F01Rik,inactive: -0.927
13,GCGCAAUAAGAUCUUCAUGTT against Ddx55,inactive: -0.715
14,GGUGUUCUUGAAGUUUAUATT against 2610020C11Rik,inactive: 0.333
15,GCCAUAUAAGAUUCUUGUGTT against Pik4cb,inactive: -0.362
16,GGACUUAGAUCGGAUCAGUTT against Mdm1,inactive: -0.59
17,GCCUCAUUAUAAAUCACACTT against A830080D01Rik,inactive: -1.16
18,CCCUAGAAUGGGAAUGUCATT against C030022K24Rik,inactive: 0.313
19,GGUAACUGUCCAGAAUCAGTT against 2310020A21Rik,inactive: 1.64
20,GCGUAUAUAAUUGAGGACUTT against Zfhx4,inactive: -0.998
21,CCUAUUUUUUCUCCACUGATT against Sntg1,inactive: -0.718
22,GGAGUUCCUUCAGCAAUAUTT against Sdad1,inactive: -1.19
23,GGCCUGUCGAAUGAAAGUGTT against Eif2ak4,inactive: -0.914
24,CGAGUGGCUGAAACUUCCGTT against Pik3c3,inactive: 1.17
25,GGACCGUUUCAUUUCAGGGTT against Phf1,inactive: 0.431
26,CGGUCUGAUGGAGUGCUAUTT against Plekhm1,inactive: 0.775

row,Sequence,z-score
1,GGUUAUCGUGCGCAUCCGATT against Pcdh8,inactive: -0.115
2,GGCCAUUUGUUAGGACCUGTT against Hrmt1l6,inactive: 1.19
3,CGAGUGAGCAUCACUUUUATT against Mal,inactive: -0.977
4,CCAUUCCAUGUCGAUGUCUTT against Prm2,inactive: -2.74
5,GGACUCACCUCAGGAACAGTT against Cd33,inactive: -0.698
6,GGUCCAAAGCAAUUCCAGCTT against E330013P04Rik,inactive: -0.72
7,GGUCCUUCAACGGAAGGGATT against Tagap,inactive: 0.272
8,CGUUGUCAUUCACAAGUGATT against A030012E10,inactive: -0.689
9,CCCUAGACUAAAAAGUAAATT against Paqr5,inactive: 1.02
10,GCUCAAAGCAUUAACUUGUTT against Pbk,inactive: 0.855
11,GGACUUUGUGGAGAAUGUCTT against Cyp1a2,inactive: -2.53
12,CCAAAAAGAUGCUGUUAAGTT against 6430502M16Rik,inactive: 0.176
13,GCCACUAUUGAAGCUUGCCTT against Olfr1209,inactive: 0.354
14,GCACUUUGGGUUUAAGUACTT against Ndrg4,inactive: -0.966
15,GGUGCUUGAGAGACUGAUATT against Nes,inactive: -0.0969
16,GCUGUCAAGCUAUAUGGCGTT against Llglh2,inactive: 0.0885
17,CCUGAAGACACCAAGUUCATT against Pcp4,inactive: -0.384
18,GGUGAUGCUCGAAUUGGGUTT against Drg1,inactive: -0.801
19,GGUGUUUACAGUUGAGAGUTT against BC006705,inactive: 0.932
20,GGAAGAAUACAAGUCUAGUTT against Pclo,inactive: 0.0688
21,GGUUAACAAAGGAAUAGCATT against B230354K17Rik,inactive: 1.17
22,GGUUUGACUAUUUCAGUGATT against Klrb1c,inactive: -0.023
23,CCGUCGUGGGUGAUAUCAUTT against 2310022A10Rik,inactive: 1.44
24,CGCUAUUUGAAAUCUCCAATT against Rgs9,inactive: -2.04
25,CCCGAACAGAUCUUGUCGATT against Hoxd10,inactive: 0.333
26,GGUGUUCUGUAUCUUGUUCTT against Ndn,inactive: 0.862

# No new results follow: entries from further up.
row,Sequence,z-score
3,CGAGUGAGCAUCACUUUUATT against Mal,inactive: -0.977
4,CCAUUCCAUGUCGAUGUCUTT against Prm2,inactive: -2.74
5,GGACUCACCUCAGGAACAGTT against Cd33,inactive: -0.698
6,GGUCCAAAGCAAUUCCAGCTT against E330013P04Rik,inactive: -0.72
7,GGUCCUUCAACGGAAGGGATT against Tagap,inactive: 0.272
8,CGUUGUCAUUCACAAGUGATT against A030012E10,inactive: -0.689
9,CCCUAGACUAAAAAGUAAATT against Paqr5,inactive: 1.02
10,GCUCAAAGCAUUAACUUGUTT against Pbk,inactive: 0.855
11,GGACUUUGUGGAGAAUGUCTT against Cyp1a2,inactive: -2.53
12,CCAAAAAGAUGCUGUUAAGTT against 6430502M16Rik,inactive: 0.176
13,GCCACUAUUGAAGCUUGCCTT against Olfr1209,inactive: 0.354
14,GCACUUUGGGUUUAAGUACTT against Ndrg4,inactive: -0.966
15,GGUGCUUGAGAGACUGAUATT against Nes,inactive: -0.0969
16,GCUGUCAAGCUAUAUGGCGTT against Llglh2,inactive: 0.0885
17,CCUGAAGACACCAAGUUCATT against Pcp4,inactive: -0.384
18,GGUGAUGCUCGAAUUGGGUTT against Drg1,inactive: -0.801
19,GGUGUUUACAGUUGAGAGUTT against BC006705,inactive: 0.932
20,GGAAGAAUACAAGUCUAGUTT against Pclo,inactive: 0.0688
21,GGUUAACAAAGGAAUAGCATT against B230354K17Rik,inactive: 1.17
22,GGUUUGACUAUUUCAGUGATT against Klrb1c,inactive: -0.023
23,CCGUCGUGGGUGAUAUCAUTT against 2310022A10Rik,inactive: 1.44
24,CGCUAUUUGAAAUCUCCAATT against Rgs9,inactive: -2.04
25,CCCGAACAGAUCUUGUCGATT against Hoxd10,inactive: 0.333

# Later entries

row,Sequence,z-score
1,CCCAAUAUGCAUAAAACAATT against Azi2,inactive: 0.388
2,CCCUAUACUGCCCGAAUCUTT against 6030441F14Rik,inactive: -0.426
3,GGGUGAGCUCACGUUCUUUTT against Trim50,inactive: -0.739
4,GGCUGUCCAUAUCAUCUACTT against Cxcr4,inactive: 0.741
5,CCUGACAAGGUUUUAGCCUTT against 5830472M02Rik,inactive: 0.0149
6,GCUGGGUAACCGCUAUCAATT against Ubtd1,inactive: -0.133
7,GGAGAAUGCUAAGGUUACUTT against Pcdhga9,inactive: -1.02
8,GGAAGGACCACGACUCAUATT against Sult2a2,inactive: 0.329
9,GCAACAAAGGUGCCGAAACTT against B330016D10Rik,inactive: 0.615
10,GCUUUGAACGGCGAUAUCATT against Wdtc1,inactive: 2.05
11,GGGCUCCUGAGCCUCUUAATT against Sprr1a,inactive: 1.14
12,GGGAUACAGAUGUAUGAGUTT against 1700030E05Rik,inactive: 0.0641
13,GCAGCUUCAAGCUAAUUGATT against Tram1l1,inactive: -0.554
14,GGACUAUGAAGAGCUAGAGTT against Luzp2,inactive: -2.22
15,GGACUCUUCAGCUUCCAGUTT against Uts2,inactive: -0.288
16,CCUAGCACUGUUAUAAACATT against Oog1,inactive: 0.434
17,GGAGCAUUUUCCAGUUGAGTT against Mrps35,inactive: -0.687
18,CCAGCAAUGUACCAGUUCATT against 2410015M20Rik,inactive: -2.03
19,GGAAGAGGAGAAGAGCAUGTT against Lgals6,inactive: -0.209
20,GGACAAAGACUUCCUUGUUTT against Gstt1,inactive: -1.03
21,GCAACGACAAACGAAGUGATT against Cdx2,inactive: 0.628
22,CCAAGAUCACUCCUGAAAGTT against LOC433332,inactive: 0.0916
23,GGCCAAGCACGAUAAAUACTT against Stub1,inactive: 0.184
24,GGAUAAGAUCAAUGCCCUCTT against Rplp1,inactive: -2.05
25,GCUUUCAUAGCUGGAAACCTT against Olfr173,inactive: 0.138
26,CCACAGCUAAAGAAUCUUUTT against 2310008H04Rik,inactive: -1.69

row,Sequence,z-score
1,CCAUUCUGAUACUAAGCAATT against Tas2r134,inactive: -1.39
2,GGCUUUGAAGAAGAGCUUUTT against Atp6v0a4,inactive: -1.22
3,GGCCAGAGUCUGGUUGAAUTT against Entpd2,inactive: -0.134
4,GGACAGAAAUGUUUUUUGGTT against Robo4,inactive: 1.74
5,GGCUCAUUCGGACUAUAUGTT against Igsf4a,inactive: 1.82
6,GGACUUCCUGACCAUCAUCTT against 1700008P20Rik,inactive: -2.22
7,CCGCCUUUCUGUGAGAUGCTT against Rbm11,inactive: 0.136
8,CGAAUACAUCAUGUCAAAATT against Chek2,inactive: 1.62
9,CGGACUCAUUCAGCAACCUTT against 4922503N01Rik,inactive: 0.283
10,GCUAACAAAGAGCCUGGCATT against Trim46,inactive: -1.24
11,GGUGGUUCGCACAGAAAGUTT against BC010801,inactive: -0.184
12,CCUUAGGCUGACAUAAUAATT against 1700014P03Rik,inactive: -0.105
13,GGCUUCUUCUACUUUCAAGTT against Slc27a5,inactive: -0.875
14,GCAUCUGUGAAAAGUGAACTT against Agtrap,inactive: -1.21
15,CAAUACAUUGAUAGCAAAUTT against V1rh7,inactive: 1.29
16,GCUAAUAAAGACGUAGCGUTT against Nup188,inactive: -0.552
17,GGCCUCGUACUCCAUAAGUTT against 1200011O22Rik,inactive: -0.0351
18,GCUCCGUGUUGUCCUAAUGTT against E230011A21Rik,inactive: 1.02
19,GGAGAGCUACGACUAUCUCTT against Vps29,inactive: 0.369
20,GGACAAUAAAAGGAAAGACTT against Brd7,inactive: -0.867
21,GGAAGCUGAAGAAGACCUGTT against Reg1,inactive: 0.99
22,GAUGGAUCUUUAUAAGCAGTT against Expi,inactive: 0.717
23,GGCAAACAUGAAGAGAAGCTT against Hspb8,inactive: -0.267
24,GGUUGUGACAAUGUGAUCCTT against Coro1a,inactive: -0.404
25,GGCAAUAACAUCCAUAUGUTT against Smyd4,inactive: 1.24
26,GGCGCAUAAUGGGAGAAGCTT against Alox5ap,inactive: -0.851
